Source: PubChem BioAssay AID743121 (NCATS, 2013)
This is a random part of about 26,000 reagents tested. Over the whole deposit, 167 (0.63%) were called active. 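Calls are per gene from RSA p-values that are not deposited; an individual active-marked siRNA can sensitise only weakly.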 The numbers tell different reagents against one gene apart. Not all columns of the deposit are shown.

- Screen: 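Knock-downs that sensitise breast cancer cells to camptothecin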 (primary screen)
- Cells: MDA-MB-231 cells, a human breast cancer line
- Reagents: single siRNA against human genes, 20 nM siRNA (0.8 pmol per well)
- Time to read-out: 120 h (drug added 48 h after transfection, read 72 h later)
- Conditions: camptothecin 20 nM (about EC30) for 72 h; vehicle 0.1% DMSO in parallel plates
- Measured: 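CellTiter-Glo ATP signal, scaled to control siRNA as percent viability; sensitisation given as log2 of untreated divided by camptothecin-treated viability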
- Scale: log2 vehicle/camptothecin viability: higher = stronger sensitisation to camptothecin; viability with camptothecin: higher = more viable cells
- Units: viability with camptothecin in % of control
- Hit rule: 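Each gene scored by redundant siRNA activity (RSA) over its individual siRNA ratios; a gene is called active at p < 0.001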

For CXCL8 #1, the values are log2 vehicle/camptothecin viability -0.112; viability with camptothecin 73.5; inactive.
CXCL8 #2 scored log2 vehicle/camptothecin viability 0.0284; viability with camptothecin 55.4; inactive.
Silencing of CXCL8 #3 came out at: log2 vehicle/camptothecin viability -0.499; viability with camptothecin 131; inactive.
For PIK3C2G #1 the deposit lists log2 vehicle/camptothecin viability 0.205; viability with camptothecin 40.7; inactive.
Against PIK3C2G #2, the values are log2 vehicle/camptothecin viability -0.0576; viability with camptothecin 106; inactive.
Against PIK3C2G #3, the entry reads log2 vehicle/camptothecin viability -0.199; viability with camptothecin 121; inactive.
For PIK3C2G #4, the entry reads log2 vehicle/camptothecin viability 0.13; viability with camptothecin 74.7; inactive.
CEBPB #1 gave log2 vehicle/camptothecin viability 0.0922; viability with camptothecin 30.6; inactive.
For CEBPB #2 the deposit lists log2 vehicle/camptothecin viability -0.409; viability with camptothecin 130; inactive.
Depletion of CEBPB #3 resulted in: log2 vehicle/camptothecin viability 0.111; viability with camptothecin 88.5; inactive.
Silencing of CEBPB #4 resulted in: log2 vehicle/camptothecin viability -0.173; viability with camptothecin 89.9; inactive.
Knock-down of CEBPD #1 came out at: log2 vehicle/camptothecin viability -0.203; viability with camptothecin 107; inactive.
With knock-down of CEBPD #2, the screen gave log2 vehicle/camptothecin viability -0.0369; viability with camptothecin 42.9; inactive.
After knock-down of CEBPD #3 the results were log2 vehicle/camptothecin viability 0.3; viability with camptothecin 67.2; inactive.
CEBPD #4 gave log2 vehicle/camptothecin viability -0.553; viability with camptothecin 30.7; inactive.
After knock-down of TRIP10 #1, the screen gave log2 vehicle/camptothecin viability -0.0742; viability with camptothecin 60.9; inactive.
For TRIP10 #2, the values are log2 vehicle/camptothecin viability 0.824; viability with camptothecin 20.4; inactive.
Against TRIP10 #3, the values are log2 vehicle/camptothecin viability -0.294; viability with camptothecin 65.9; inactive.
Knock-down of TRIP10 #4 came out at: log2 vehicle/camptothecin viability -0.356; viability with camptothecin 101; inactive.
ZACN #1 scored log2 vehicle/camptothecin viability -0.16; viability with camptothecin 94.3; inactive.
Depletion of ZACN #2 came out at: log2 vehicle/camptothecin viability -0.314; viability with camptothecin 53.5; inactive.
For ZACN #3, the entry reads log2 vehicle/camptothecin viability 0.236; viability with camptothecin 42.5; inactive.

An excerpt of the results above:
CEBPB #4: log2 vehicle/camptothecin viability = -0.173; viability with camptothecin = 89.9; activity call = inactive
CEBPD #1: log2 vehicle/camptothecin viability = -0.203; viability with camptothecin = 107; activity call = inactive
CEBPD #2: log2 vehicle/camptothecin viability = -0.0369; viability with camptothecin = 42.9; activity call = inactive
CEBPD #3: log2 vehicle/camptothecin viability = 0.3; viability with camptothecin = 67.2; activity call = inactive
CEBPD #4: log2 vehicle/camptothecin viability = -0.553; viability with camptothecin = 30.7; activity call = inactive
TRIP10 #1: log2 vehicle/camptothecin viability = -0.0742; viability with camptothecin = 60.9; activity call = inactive

Continued.
Silencing of POMZP3 #1 came out at: log2 vehicle/camptothecin viability 0.000804; viability with camptothecin 82.6; inactive.
Against POMZP3 #2, the entry reads log2 vehicle/camptothecin viability -0.425; viability with camptothecin 130; inactive.
Against POMZP3 #3, the entry reads log2 vehicle/camptothecin viability -0.492; viability with camptothecin 57.5; inactive.
Knock-down of IL3 #1 gave: log2 vehicle/camptothecin viability 0.218; viability with camptothecin 74.2; inactive.
Depletion of IL3 #2 came out at: log2 vehicle/camptothecin viability 0.0539; viability with camptothecin 59.7; inactive.
Knock-down of IL3 #3 resulted in: log2 vehicle/camptothecin viability -0.368; viability with camptothecin 107; inactive.
WNK4 #1 scored log2 vehicle/camptothecin viability -0.235; viability with camptothecin 98.2; inactive.
Silencing of WNK4 #2 came out at: log2 vehicle/camptothecin viability 0.305; viability with camptothecin 18; inactive.
After knock-down of WNK4 #3 the results were log2 vehicle/camptothecin viability 0.097; viability with camptothecin 47.9; inactive.
After knock-down of WNK4 #4, the screen gave log2 vehicle/camptothecin viability -0.23; viability with camptothecin 50.4; inactive.
RAB8A #1 scored log2 vehicle/camptothecin viability -0.678; viability with camptothecin 128; inactive.
With knock-down of RAB8A #2, the screen gave log2 vehicle/camptothecin viability 0.128; viability with camptothecin 57.8; inactive.
After knock-down of RAB8A #3 the results were log2 vehicle/camptothecin viability 0.143; viability with camptothecin 78.8; inactive.
Against RAB8A #4, the entry reads log2 vehicle/camptothecin viability -0.137; viability with camptothecin 91.7; inactive.
Knock-down of PLAUR #1 came out at: log2 vehicle/camptothecin viability -0.221; viability with camptothecin 88.7; inactive.
For PLAUR #2 the deposit lists log2 vehicle/camptothecin viability 0.11; viability with camptothecin 58.2; inactive.
PLAUR #3 showed log2 vehicle/camptothecin viability 0.0223; viability with camptothecin 88.2; inactive.
Knock-down of PLAUR #4 resulted in: log2 vehicle/camptothecin viability 0.0745; viability with camptothecin 40.3; inactive.
Silencing of AKAP5 #1 resulted in: log2 vehicle/camptothecin viability -0.575; viability with camptothecin 111; inactive.
AKAP5 #2 gave log2 vehicle/camptothecin viability -0.246; viability with camptothecin 79.7; inactive.
AKAP5 #3 scored log2 vehicle/camptothecin viability 0.2; viability with camptothecin 73.5; inactive.
For AKAP5 #4 the deposit lists log2 vehicle/camptothecin viability -0.418; viability with camptothecin 91.4; inactive.
Knock-down of CCL7 #1 came out at: log2 vehicle/camptothecin viability -0.123; viability with camptothecin 119; inactive.
Depletion of CCL7 #2 gave: log2 vehicle/camptothecin viability 0.0221; viability with camptothecin 62.9; inactive.
Against CCL7 #3, the values are log2 vehicle/camptothecin viability 0.641; viability with camptothecin 58.1; inactive.
With knock-down of CCL7 #4, the record shows log2 vehicle/camptothecin viability -0.136; viability with camptothecin 46.1; inactive.
